# PubChem BioAssay AID588855 (National Center for Advancing Translational Sciences (NCATS), 2011)
# This is a selection; strong and weak results do not stand in their true shares. Inconclusive results are not listed. Calls of active or inactive are those of the source. Calls come from the whole dose curve; as a rule, active = well fitted inhibition curve with a large enough effect; inconclusive = small, poorly fitted or top-dose-only effect; inactive = no such curve, though single readings can be large or run the other way.
# Assay: qHTS for Inhibitors of TGF-b; note: nearly all actives have a fitted effect of over 65% in size
# Settings: HepG2 CAGA-GFP TGF-b/SMAD3 reporter, GFP fluorescence, 18 h; TGF-beta stimulated, 500 pg/mL final
# From the text: TGF-b is a main component in the TGF-b signaling pathway which plays diverse roles in cellular and development pathways. TGF-b is the mediated by the transcription factors Smads. Although the Smad-dependent pathway is the primary canonical TGF-b signaling node, TGF-b1 can also activate alternative signaling pathways, including those involving MAPK (ERK, JNK and p38). This interaction may mediate or enhance Smad-dependent responses, or can exert Smad-independent effects. The complexity of this signaling cascade allows the TGF-b superfamily to perform unique, overlapping or redundant functions. […] We aim to identify Smad3-small molecule antagonists using a quantitative high throughput screening (qHTS) approach. […]
# Suspensions of trypsinized HEPG2 CAGA-GFP cells were dispensed into white, tissue culture-treated, solid 1536-well plates at 5uL/well (1000 cells/well final concentration) in DMEM medium supplemented with 1% FBS. […] The plates were measured on an Acumen eX3 Explorer plate reader for GFP fluorescence (ex488/em500-530). GFP values were calculated by determining the mean GFP fluorescence of individual cells, and compiling these values for each well to determine a total well GFP signal. The %Activity was determined from the corrected fluorescence values. […]
# Concentration-response curves were fitted to the signals arising from the resulting fluorescence. […]
# Potency is the fitted concentration of half-maximal effect.
row,Structure (SMILES),Potency
1,COc1cc2c(c(OC)c1OC)-c1ccc(OC)c(=O)cc1C(N)CC2 (stereo unspecified),active: 398 nM
